Source: patent US20020199211A1 (CHILDREN S MEDICAL CENTER, published 2002)
Values belong to the binder of their own block, whether it stands above or below them.

What was measured:
[1] = biological target: T1, full length WASP cloned into the bait vector pGBT9 (Gal4 binding domain fusion) (UniProt P04386 1-147; P42768 1-502); assay: yeast two-hybrid
T1 construct: also called WAS protein

[2] = biological target: T2, Glutathione S-transferase (GST) alone (UniProt P08515 1-218 = GST); assay: affinity precipitation on GSH beads from BJAB lysate, anti-WIP Western blot
T2 construct: also called control GST

binding result [1]: no binding
B1: pGAD-WIP-(321-415) (other, not shown: large carriers)
chain: LPPSSSGNDETPRLPQRNLSLSSSTPPLPSPGRSGPLPPPPSERPPPPVRDPPGRSGPLPPPPPVSRNGSTSRALPATPQLPSRSGVDSPRSGPR
notes: Made from pGAD-WIP4 by StuI and PstI digestion

binding result [2]: no binding
B2: endogenous WIP from BJAB cells (other)
chain: MPVPPPPAPPPPPTFALANTEKPTLNKTEQAGRNALLSDISKGKKLKKTVTNDRSAPILDKPKGAGAGGGGGGFGGGGGFGGGGGGGGGGSFGGGGPPGLGGLFQAGMPKLRSTANRDNDSGGSRPPLLPPGGRSTSAKPFSPPSGPGRFPVPSPGHRSGPPEPQRNRMPPPRPDVGSKPDSIPPPVPSTPRPIQSSLHNRGSPPVPGGPRQPSPGPTPPPFPGNRGTALGGGSIRQSPLSSSSPFSNRPPLPPTPSRALDDKPPPPPPPVGNRPSIHREAVPPPPPQNNKPPVPSTPRPSAPHRPHLRPPPPSRPGPPPLPPSSSGNDETPRLPQRNLSLSSSTPPLPSPGRSGPLPPPPSERPPPPVRDPPGRSGPLPPPPPVSRNGSTSRALPATPQLPSRSGVDSPRSGPRPPLPPDRPSAGAPPPPPPSTSIRNGFQDSPCEDEWESRFYFHPISDLPPPEPYVQTTKSYPSKLARNESRSGSNRRERGGPPLPPIPR
notes: Endogenous protein in BJAB lysate, detected with anti-WIP rabbit antibody; also called full-length WIP
